The results in this text go back to PMC11149843.

By UniProt entry, the sequences of proteins in these tests, tags left out.
UniProt P22216: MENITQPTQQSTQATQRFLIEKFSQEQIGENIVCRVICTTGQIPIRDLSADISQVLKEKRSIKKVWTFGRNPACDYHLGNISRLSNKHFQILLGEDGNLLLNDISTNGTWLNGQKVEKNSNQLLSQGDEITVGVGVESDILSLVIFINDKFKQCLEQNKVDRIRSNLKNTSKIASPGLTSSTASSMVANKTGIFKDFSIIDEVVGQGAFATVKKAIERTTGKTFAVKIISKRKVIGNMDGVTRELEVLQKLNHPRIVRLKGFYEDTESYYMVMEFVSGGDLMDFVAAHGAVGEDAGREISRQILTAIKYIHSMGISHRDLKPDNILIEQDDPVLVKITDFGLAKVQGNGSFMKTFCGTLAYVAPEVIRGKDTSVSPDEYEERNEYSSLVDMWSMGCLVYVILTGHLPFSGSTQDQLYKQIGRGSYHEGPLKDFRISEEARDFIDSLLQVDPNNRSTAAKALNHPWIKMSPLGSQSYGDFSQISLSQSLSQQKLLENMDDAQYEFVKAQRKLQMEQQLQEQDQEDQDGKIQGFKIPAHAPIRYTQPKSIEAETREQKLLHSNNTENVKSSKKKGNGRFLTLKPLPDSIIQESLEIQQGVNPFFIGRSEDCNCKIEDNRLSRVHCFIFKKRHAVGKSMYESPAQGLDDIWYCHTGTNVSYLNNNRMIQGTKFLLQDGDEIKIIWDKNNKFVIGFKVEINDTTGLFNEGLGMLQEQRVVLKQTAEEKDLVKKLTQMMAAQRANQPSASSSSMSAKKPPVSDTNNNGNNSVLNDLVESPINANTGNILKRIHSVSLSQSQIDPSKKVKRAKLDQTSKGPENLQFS

Results are given in words; binding and its absence hold for the method and conditions named. In cells and extracts the contact can be indirect. These calls come from enrichment with a bait or labelling near it, and not all partners need be listed. Tags and fused reporters may be left off the sequences shown.

The experiment addresses T1, Mcm4-GFP (Saccharomyces cerevisiae) (UniProt P30665).
T1 sequence: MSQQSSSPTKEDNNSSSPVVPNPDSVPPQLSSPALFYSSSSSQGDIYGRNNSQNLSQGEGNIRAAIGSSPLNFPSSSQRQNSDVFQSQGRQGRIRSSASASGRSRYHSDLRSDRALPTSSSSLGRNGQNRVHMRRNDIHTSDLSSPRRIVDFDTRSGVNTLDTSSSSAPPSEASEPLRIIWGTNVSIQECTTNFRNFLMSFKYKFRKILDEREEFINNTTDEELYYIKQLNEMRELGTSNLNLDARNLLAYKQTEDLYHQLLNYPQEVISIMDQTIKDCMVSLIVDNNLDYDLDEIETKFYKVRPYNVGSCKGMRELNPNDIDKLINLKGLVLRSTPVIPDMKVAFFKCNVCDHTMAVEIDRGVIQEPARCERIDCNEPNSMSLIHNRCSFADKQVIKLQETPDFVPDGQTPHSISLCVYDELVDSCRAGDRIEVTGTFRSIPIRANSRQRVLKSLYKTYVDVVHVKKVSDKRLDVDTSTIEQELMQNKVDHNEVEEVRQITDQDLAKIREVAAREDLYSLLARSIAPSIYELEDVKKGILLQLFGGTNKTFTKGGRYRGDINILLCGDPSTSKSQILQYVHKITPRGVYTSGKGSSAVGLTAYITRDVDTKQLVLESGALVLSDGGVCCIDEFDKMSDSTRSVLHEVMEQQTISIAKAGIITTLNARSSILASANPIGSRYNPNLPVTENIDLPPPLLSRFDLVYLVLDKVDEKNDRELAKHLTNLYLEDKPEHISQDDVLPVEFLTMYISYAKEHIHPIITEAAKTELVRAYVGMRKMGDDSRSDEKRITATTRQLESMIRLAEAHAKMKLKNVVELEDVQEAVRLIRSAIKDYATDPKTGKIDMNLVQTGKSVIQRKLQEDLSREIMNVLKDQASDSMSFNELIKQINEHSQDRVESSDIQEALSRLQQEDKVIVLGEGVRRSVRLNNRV
As to the kind of experiment: affinity purification with mass spectrometry; Mcm4-GFP immunoprecipitated with GFP-trap beads under native conditions from asynchronous cultures treated or not with 0.025% MMS for 2 hours; untagged control; four biological repeats.

In the case of Rad53 (from UniProt P22216 1-821), the binding result is recorded as “binds”.

B1: Crt10 (protein, UniProt Q08226 1-957)
chain: MPPQIPNENDDLFTRWLKSRAIIQRAVSTRECFDSEVFLASGGWNITNEIITLKKYYQLKWPNSSCNSFHPKTVEFIKERLHNLEEHDSSWKIPNPAYSFKKAFLEDTKSAFSNLEPVWGPSRLLNPAELLLPQDEKLLVQEIPLEFAPFQYTNRFAYGGLQFKNNLFVTYGSYSFLAAGQCVEVHNFDILLNVSSLEICHALLPVIIPDDGDVRNFRNSSYVKFKDTQFNSIPELCSINFMKICNFMHQDFLLACGDNGIVYIWEINKVIKIFNKFTSDILGGKDNSRERYINVDPYMVLRVEESCWSVDVIDINGIIYIAVGHNKPGVTVFAFDKDVKKERRYIRPLDLPSSHNVPCVNFVPNSKDSVGYITLSYCSIFGNVVTVKLKEHDCTILTSFLDTQFFGDDLWTITPLTKKDFAKVDNFELLNLNYQDGFKESMLYSICRDDFLLGYYCDNAYLSGNFGIGTLLNQFQVPVTDLRLTSSAGIPDEVIPLRFTSFDRNYTTTGSIKYEYSREDFALILHAGDLDDMNDAVTKNTSCEQHLHQWTFWEDSGYKHYRATERGFSKYKDIINTFPQLITPSGRNKTSQYQNTSGRKICEPSTYKLTDLENDIEDISREFNRSIRNLKMDKQRQLRTSKEFKSLSSVNHIPNIESGNFLWYNTDAAADWRTLFGKDLNTVLKDPEICSLQLNSTEEDDVNSDPENEESGSSLTSFQRRYRDTEQRAHLKSESQKSWGFHNYVRNVKRLLESAVPGSEDSPLGYQLSEMHDEFFFLTTAHRLVLMKANPLIIISATHHEIFPLDGVVTCASKSLLQALNRINFVCHIKELNCIAVASQLGLISLLRLTEYRGIYSFRQEYILGWEVQDPVNPSPECRCNRNLFDAPMYGADGESSDTYCGVCDVYFPMGDICGLDYTYASDSEELKRKGYATLYVASRGSLRAFKITTEHGTTQQ
Consider B1, for which the binding entry is recorded as “binds”.

B2: Rnr3 (protein, UniProt P21672 1-869)
chain: MYVIKRDGRKEPVQFDKITSRITRLSYGLDPNRIDAVKVTQRIISGVYSGVTTVELDNLAAETCAYMTTVHPDYATLAARIAISNLHKQTTKQFSKVIEDLHDWINPATGKHAPMISDEIYNIVMENKDTLNSAIVYDRDFQYTYFGFKTLERSYLLRLNGEVAERPQHLVMRVALGIHGSDIESVLKTYNLMSLRYFTHASPTLFNAGTPHPQMSSCFLIAMKDDSIEGIYDTLKECAMISKTAGGVGLHINNIRSTGSYIAGTNGTSNGLIPMIRVFNNTARYVDQGGNKRPGAFALFLEPWHADIFDFVDIRKTHGKEEIRARDLFPALWIPDLFMKRVQEDGPWTLFSPSAAPGLDDVWGDEFEELYTRYEREGRGKTIKAQKLWYAILQAQTETGTPFMVYKDACNRKTNQQNLGTIKSSNLCCEIVEYSSPDETAVCNLASIALPAFVEVSEDGKTASYNFERLHEIAKVITHNLNRVIDRNYYPVPEARNSNMKHRPIALGVQGLADTYMMLRLPFESEEAQTLNKQIFETIYHATLEASCELAQKEGKYSTFEGSPASKGILQFDMWNAKPFGMWDWETLRKDIVKHGLRNSLTMAPMPTASTSQILGYNECFEPVTSNMYSRRVLSGEFQVVNPYLLRDLVDLGIWDDSMKQYLITQNGSIQGLPNVPQELKELYKTVWEISQKTIINMAADRAIYIDQSHSLNLFLQAPSMGKITSMHFYGWKKGLKTGMYYLRTQAASAAIQFTIDQEVADQAATHIASVSELDRPVYVPKGTKFSEQKAASALTESSDNEKDASPVPSEQSSVSSAMSNVKLEDSVAPAVPTETIKEDSDEKKCDIYNEKVIACTAPTPEACESCSG
As to B2, the binding entry was “binds”.
